Results are given in words; binding and its absence hold for the method and conditions named. Binding seen in cells or lysates may run through a third protein.

Sequences of proteins named here, by UniProt entry; tags and fusion partners are left off.
UniProt Q14145: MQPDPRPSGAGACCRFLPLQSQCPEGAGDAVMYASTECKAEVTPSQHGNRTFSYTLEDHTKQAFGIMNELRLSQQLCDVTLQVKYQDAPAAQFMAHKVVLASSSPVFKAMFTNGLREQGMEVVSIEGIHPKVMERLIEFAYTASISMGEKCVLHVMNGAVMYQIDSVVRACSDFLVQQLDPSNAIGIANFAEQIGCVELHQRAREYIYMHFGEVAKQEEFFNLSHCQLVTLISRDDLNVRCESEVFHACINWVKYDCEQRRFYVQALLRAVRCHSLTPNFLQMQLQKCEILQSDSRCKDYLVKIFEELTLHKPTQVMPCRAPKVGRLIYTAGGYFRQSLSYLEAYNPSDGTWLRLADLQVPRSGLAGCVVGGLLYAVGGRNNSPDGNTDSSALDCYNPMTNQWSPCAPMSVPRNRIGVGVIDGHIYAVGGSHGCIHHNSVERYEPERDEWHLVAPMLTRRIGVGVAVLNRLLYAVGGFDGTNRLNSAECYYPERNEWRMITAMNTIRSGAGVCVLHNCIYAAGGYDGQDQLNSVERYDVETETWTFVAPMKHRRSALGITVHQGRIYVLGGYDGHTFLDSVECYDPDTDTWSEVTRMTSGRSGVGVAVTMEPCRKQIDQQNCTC

The target of the assay is KEAP1-FLAG (human) (UniProt Q14145). The assay can be described thus: co-IP.

On to “TRIM21-HA (Tripartite motif-containing protein 21) (from UniProt P19474-1 1-475)”, for which the binding result is on record as “no binding”.

(Values after publication PMC10970474.)
